# Results published in PMC7819943, “Rice protein-binding microarrays: a tool to detect cis-acting elements near promoter regions in rice”.
# Sequences of proteins named here, by UniProt entry; tags and fusion partners are left off.
# UniProt Q0JBA9, entry or part of it: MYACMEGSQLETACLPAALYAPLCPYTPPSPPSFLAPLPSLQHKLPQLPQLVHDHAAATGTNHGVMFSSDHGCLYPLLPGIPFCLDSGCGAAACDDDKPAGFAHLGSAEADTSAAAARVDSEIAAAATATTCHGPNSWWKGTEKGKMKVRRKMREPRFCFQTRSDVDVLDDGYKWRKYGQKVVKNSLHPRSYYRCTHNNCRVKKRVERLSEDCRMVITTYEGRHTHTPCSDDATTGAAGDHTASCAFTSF
# The other results are listed elsewhere or left out.
# Molecular target: OsWRKY34 (Oryza sativa, UniProt Q0JBA9 1-250)
# Test: protein-binding microarray (RPBM); PBS, 2% BSA, 51.3 ng/ul salmon testes DNA, 50 uM zinc acetate, 200 nM TF, 25 C, 1 h; high values mean tight binding
# Settings: protein: recombinant; tags: N-terminal polyhistidine and DsRed monomer fusion (pET32a); label: CyDye5-dUTP incorporated in the synthesized complementary strand; 3' TTTTT single-stranded linker to array surface; dsDNA, one strand shown
# Summary of the method: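 Ni–NTA purification followed expression in E. coli BL21-CodonPlus of transcription factors fused N-terminally to a polyhistidine tag and DsRed. At 200 nM in PBS with 2% BSA, salmon testes DNA and 50 µM zinc acetate, the protein was incubated for 1 h at 25 °C with a custom Agilent array that had been primer-extended with Cy5-dUTP and blocked with 2% BSA. After washing, the array was read on an Axon 4000B scanner. The binding signal is per-feature fluorescence intensity in arbitrary units.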
row,Sequence,binding signal
1,ATCTCATCTATTTTCACCATGTGTACACCTCCCTCAATATCGGAGTCACCTAGTGCAG,9280 fluorescence intensity (a.u.)
2,CTGGTGGTTTTGCTGTTTATTTGGGTGACAATCTTGTTTCCGGAGTCACCTAGTGCAG,9450 fluorescence intensity (a.u.)
3,GAATCGGCCTGTTCCTTTTCCATTGATTTTCACAGTCTTTCGGAGTCACCTAGTGCAG,12100 fluorescence intensity (a.u.)
4,ATGGTAGCCAAGCCCACTCGACCACCCCACAGGCCCACACCGGAGTCACCTAGTGCAG,8150 fluorescence intensity (a.u.)
5,GTACTCCCTCCATCCCTAAATGTTTGACGCCGTTGACTTTCGGAGTCACCTAGTGCAG,16000 fluorescence intensity (a.u.)
6,TCATACTCGTCTATACCATAGAACATGCCCTTAATATCTTCGGAGTCACCTAGTGCAG,8630 fluorescence intensity (a.u.)
7,TTAGGTCTCACAACGCCATCTTGCAAGCCAAACAACTGCCCGGAGTCACCTAGTGCAG,8670 fluorescence intensity (a.u.)
8,GTTGTCTTGTGGGAATTATTTTTTCTGTCCAAGTTGGCCGCGGAGTCACCTAGTGCAG,8030 fluorescence intensity (a.u.)
9,GACGGTGACGAACTAGGTTTCTTTTTTTTCTTTTTTCTTTCGGAGTCACCTAGTGCAG,11600 fluorescence intensity (a.u.)
10,CTCAATCGATAAACCCTAGTATTAACTTGCTTTATTCCTCCGGAGTCACCTAGTGCAG,8300 fluorescence intensity (a.u.)
11,CGGGCCTCCTCGCCGCCGTGCTCCTCTCCTCCCTCCTCGACGGAGTCACCTAGTGCAG,8040 fluorescence intensity (a.u.)
12,CCGAGCCACAACCATAGCCTCACGTCATCTTCCCCTTTCACGGAGTCACCTAGTGCAG,8730 fluorescence intensity (a.u.)
13,AAAAATTCGTCTCGTGATTTTCTCCCTACCTGCGCAATTACGGAGTCACCTAGTGCAG,9240 fluorescence intensity (a.u.)
14,GTATACCTGCGCGTATACGGATGTTTTCGGCGTACATTAACGGAGTCACCTAGTGCAG,8390 fluorescence intensity (a.u.)
15,GCCCGTCGTCGTCCCACTAGTTCGATCGATCGCCACCATGCGGAGTCACCTAGTGCAG,8570 fluorescence intensity (a.u.)
16,CTCATCCTAACTCCTGCTTGTTTTTTCATGTAAACACTTCCGGAGTCACCTAGTGCAG,8080 fluorescence intensity (a.u.)
17,GTTAAGGGTGTGTTTGGATGGATATTATGGCGGCTTGTATCGGAGTCACCTAGTGCAG,8390 fluorescence intensity (a.u.)
18,TCTCGTTCTGTAAAGTGTCCTTTGCGGTATTCAGAATTTCCGGAGTCACCTAGTGCAG,8060 fluorescence intensity (a.u.)
19,GTAGCTATAAACCCAGCGCGCCGTGAAGGCCTCTCTTTCCCGGAGTCACCTAGTGCAG,8920 fluorescence intensity (a.u.)
20,CGTGCACGTTCACGCCTTCTATGCTTCACACCAACGTTCACGGAGTCACCTAGTGCAG,8850 fluorescence intensity (a.u.)
21,TTAGCTTGTATCCTGTGGCCATTGATGCTGCTTTCTCTGTCGGAGTCACCTAGTGCAG,8570 fluorescence intensity (a.u.)

# Fetched one by one from above:
row,Sequence,binding signal
15,GCCCGTCGTCGTCCCACTAGTTCGATCGATCGCCACCATGCGGAGTCACCTAGTGCAG,8570 fluorescence intensity (a.u.)
17,GTTAAGGGTGTGTTTGGATGGATATTATGGCGGCTTGTATCGGAGTCACCTAGTGCAG,8390 fluorescence intensity (a.u.)
9,GACGGTGACGAACTAGGTTTCTTTTTTTTCTTTTTTCTTTCGGAGTCACCTAGTGCAG,11600 fluorescence intensity (a.u.)
3,GAATCGGCCTGTTCCTTTTCCATTGATTTTCACAGTCTTTCGGAGTCACCTAGTGCAG,12100 fluorescence intensity (a.u.)

# (further entries)

row,Sequence,binding signal
1,AGTACTCCTCCGTTCTAAATTAGATGTCGTTTTGATTTTTCGGAGTCACCTAGTGCAG,8570 fluorescence intensity (a.u.)
2,CTGATAGCCAGCCAAAAACATTTCTTCTACTATAGCTACTCGGAGTCACCTAGTGCAG,8060 fluorescence intensity (a.u.)
3,AATTCATCCTATGACGGCTTTACTGAACCTTGATTTATATCGGAGTCACCTAGTGCAG,8830 fluorescence intensity (a.u.)
4,ACACAAACTTTCAACTTTTTCTGTCACATCGTTCCAATTTCGGAGTCACCTAGTGCAG,8220 fluorescence intensity (a.u.)
5,CTCTACTGGTACATCCACGCTACCTCCAGCCCTCCAGCCACGGAGTCACCTAGTGCAG,8660 fluorescence intensity (a.u.)
6,CGCGCTCCTCTCCGCTCCTAGGATTGTTCTTTTTTTTAAACGGAGTCACCTAGTGCAG,8390 fluorescence intensity (a.u.)
7,TCCGCTACCGTATTCGTTCCGTCTCGTATTCGCTCCGTTTCGGAGTCACCTAGTGCAG,8940 fluorescence intensity (a.u.)
8,ATATACTTCTCTCTTGGTTGATATTACTTATCGTTCTGAACGGAGTCACCTAGTGCAG,8580 fluorescence intensity (a.u.)
9,GGTCTCACCAGACTGTGACACATTTTTCCCACCGGCTAACCGGAGTCACCTAGTGCAG,9040 fluorescence intensity (a.u.)
10,TAATTTGGGTGCACCGTGCACCTACTCTCTATGACCATCACGGAGTCACCTAGTGCAG,8850 fluorescence intensity (a.u.)
11,GACAGTTCATTTATATCCGGCCCGTTAGAGGTGTTACTCACGGAGTCACCTAGTGCAG,13000 fluorescence intensity (a.u.)
12,ATCTTTTTACCCAATTCTTGATCACTCTTCTTGGTCGTTCCGGAGTCACCTAGTGCAG,8060 fluorescence intensity (a.u.)
13,GTATCGGTTTTTATTTAGAACTGGCTCCTATCTCTCCATACGGAGTCACCTAGTGCAG,9040 fluorescence intensity (a.u.)
14,TAAATACCATCACTACCTTTCTGCTTGTTAATTCCAATTGCGGAGTCACCTAGTGCAG,8440 fluorescence intensity (a.u.)
15,CTATAAGTTTCTGTGCTCAACTTTGATCGTCCGTCTTATTCGGAGTCACCTAGTGCAG,9880 fluorescence intensity (a.u.)
16,TTTTTGCGGTGTCCCTAGTTAATTACACTTTTTTGGATGTCGGAGTCACCTAGTGCAG,8590 fluorescence intensity (a.u.)
17,CTAATGGTTTACCTCGTTTTGCGTATCTTCCCAATCTTCTCGGAGTCACCTAGTGCAG,8910 fluorescence intensity (a.u.)
18,ATGCTCATCACCCACCGGCATTCTACCTGCATATTGTTTTCGGAGTCACCTAGTGCAG,13900 fluorescence intensity (a.u.)
19,ATAATATACATTTTCTTTTTTTCTCATATTTTCATTATAACGGAGTCACCTAGTGCAG,10200 fluorescence intensity (a.u.)
20,CCTCATTATTTTGTTCCAAGGGATTCTAATTTTCCTTCTACGGAGTCACCTAGTGCAG,9060 fluorescence intensity (a.u.)
21,TTATTTGATCGTTTTACTGAGCGGTTTGTTAACTCGAACCCGGAGTCACCTAGTGCAG,8750 fluorescence intensity (a.u.)
